Here are results for four molecules from publication PMC6797737.

Chains of the proteins cited; added tags and fusions are not shown.
UniProt Q8CIG8: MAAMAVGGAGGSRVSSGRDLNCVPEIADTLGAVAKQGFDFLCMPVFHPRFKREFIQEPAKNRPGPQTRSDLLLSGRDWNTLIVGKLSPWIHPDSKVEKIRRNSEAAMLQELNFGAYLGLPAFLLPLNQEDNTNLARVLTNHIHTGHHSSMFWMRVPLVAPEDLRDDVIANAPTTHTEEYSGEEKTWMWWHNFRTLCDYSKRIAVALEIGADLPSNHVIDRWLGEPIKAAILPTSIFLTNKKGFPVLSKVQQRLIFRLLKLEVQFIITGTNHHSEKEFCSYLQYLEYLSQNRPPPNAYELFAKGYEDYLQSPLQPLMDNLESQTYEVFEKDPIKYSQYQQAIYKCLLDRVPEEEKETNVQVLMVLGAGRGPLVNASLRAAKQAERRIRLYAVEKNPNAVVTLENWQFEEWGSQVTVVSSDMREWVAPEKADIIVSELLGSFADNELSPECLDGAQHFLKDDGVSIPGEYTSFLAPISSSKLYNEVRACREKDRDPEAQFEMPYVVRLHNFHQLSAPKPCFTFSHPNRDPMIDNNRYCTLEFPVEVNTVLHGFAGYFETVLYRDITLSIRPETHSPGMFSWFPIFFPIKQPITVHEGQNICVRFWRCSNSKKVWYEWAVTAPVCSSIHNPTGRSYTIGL
UniProt Q9JMB7: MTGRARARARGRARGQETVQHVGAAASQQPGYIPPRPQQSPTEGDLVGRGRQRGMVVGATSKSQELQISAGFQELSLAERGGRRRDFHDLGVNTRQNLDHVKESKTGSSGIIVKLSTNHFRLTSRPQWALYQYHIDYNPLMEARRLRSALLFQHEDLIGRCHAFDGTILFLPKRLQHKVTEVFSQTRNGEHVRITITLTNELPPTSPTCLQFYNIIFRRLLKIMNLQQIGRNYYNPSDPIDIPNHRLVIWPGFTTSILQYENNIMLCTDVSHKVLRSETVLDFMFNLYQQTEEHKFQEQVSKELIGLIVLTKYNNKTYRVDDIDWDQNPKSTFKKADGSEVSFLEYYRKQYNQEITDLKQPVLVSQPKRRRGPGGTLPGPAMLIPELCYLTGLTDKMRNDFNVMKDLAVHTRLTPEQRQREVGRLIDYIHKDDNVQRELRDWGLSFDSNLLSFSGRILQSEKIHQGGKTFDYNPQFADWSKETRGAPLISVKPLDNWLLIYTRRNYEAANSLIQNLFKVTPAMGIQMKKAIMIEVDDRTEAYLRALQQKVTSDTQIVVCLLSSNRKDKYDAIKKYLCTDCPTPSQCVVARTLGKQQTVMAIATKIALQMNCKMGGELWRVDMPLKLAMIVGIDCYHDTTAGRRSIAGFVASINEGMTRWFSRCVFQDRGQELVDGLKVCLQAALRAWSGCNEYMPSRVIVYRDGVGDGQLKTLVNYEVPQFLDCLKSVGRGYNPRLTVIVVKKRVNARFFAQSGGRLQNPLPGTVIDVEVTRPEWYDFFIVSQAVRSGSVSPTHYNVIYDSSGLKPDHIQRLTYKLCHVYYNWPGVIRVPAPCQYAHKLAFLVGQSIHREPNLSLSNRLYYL
UniProt Q8CDG1: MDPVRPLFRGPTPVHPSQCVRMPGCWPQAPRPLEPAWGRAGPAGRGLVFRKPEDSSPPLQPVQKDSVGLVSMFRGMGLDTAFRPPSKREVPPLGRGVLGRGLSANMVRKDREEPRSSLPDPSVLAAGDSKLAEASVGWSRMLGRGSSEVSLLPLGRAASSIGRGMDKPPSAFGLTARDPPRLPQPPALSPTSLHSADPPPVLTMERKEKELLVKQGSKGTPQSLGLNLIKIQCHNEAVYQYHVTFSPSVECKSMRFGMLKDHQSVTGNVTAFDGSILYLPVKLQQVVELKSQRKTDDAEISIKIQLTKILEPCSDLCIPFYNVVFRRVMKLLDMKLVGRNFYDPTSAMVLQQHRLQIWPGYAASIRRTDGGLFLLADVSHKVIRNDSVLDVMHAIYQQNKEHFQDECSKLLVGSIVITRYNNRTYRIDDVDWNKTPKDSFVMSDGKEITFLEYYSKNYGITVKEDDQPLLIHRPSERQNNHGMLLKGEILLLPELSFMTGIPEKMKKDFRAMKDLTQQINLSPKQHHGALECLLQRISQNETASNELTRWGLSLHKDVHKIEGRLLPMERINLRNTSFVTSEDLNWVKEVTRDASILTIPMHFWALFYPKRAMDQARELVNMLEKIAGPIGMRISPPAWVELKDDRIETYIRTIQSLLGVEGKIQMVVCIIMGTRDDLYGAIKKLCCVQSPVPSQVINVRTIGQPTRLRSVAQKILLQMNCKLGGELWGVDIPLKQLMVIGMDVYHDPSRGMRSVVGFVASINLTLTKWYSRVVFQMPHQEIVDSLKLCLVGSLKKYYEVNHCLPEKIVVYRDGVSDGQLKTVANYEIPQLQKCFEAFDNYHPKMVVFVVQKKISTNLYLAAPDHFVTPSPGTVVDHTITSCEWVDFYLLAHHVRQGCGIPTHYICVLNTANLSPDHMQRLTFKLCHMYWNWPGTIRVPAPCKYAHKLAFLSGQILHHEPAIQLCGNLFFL

No constants are given. Whether binding was seen depends on the method and setting. In cells and extracts the contact can be indirect. Some results given as binding are weak or reduced against the parent protein; the word gives no strength. For some of these results: Where a sequence is shown, tags or fusion partners need not be part of it.

Assay [1] has as its target PRMT5 (mouse (endogenous in testes)) (UniProt Q8CIG8). The experiment in a line: co-IP; lysate of adult mouse testes (control and Uhrf1 cKO) in IP buffer (20 mM HEPES, 150 mM NaCl, 2 mM magnesium acetate, 0.2% NP-40, 1 mM DTT, pH 7.3); primary antibody overnight at 4 °C, protein A beads; western blot. (In general: Immunoblotting shows a protein as a band on a membrane.)
Assay [2] concerns the target T1, UHRF1 (ubiquitin-like, containing PHD and RING finger domains 1) (mouse (endogenous in testes)) (UniProt Q8VDF2).
T1 sequence: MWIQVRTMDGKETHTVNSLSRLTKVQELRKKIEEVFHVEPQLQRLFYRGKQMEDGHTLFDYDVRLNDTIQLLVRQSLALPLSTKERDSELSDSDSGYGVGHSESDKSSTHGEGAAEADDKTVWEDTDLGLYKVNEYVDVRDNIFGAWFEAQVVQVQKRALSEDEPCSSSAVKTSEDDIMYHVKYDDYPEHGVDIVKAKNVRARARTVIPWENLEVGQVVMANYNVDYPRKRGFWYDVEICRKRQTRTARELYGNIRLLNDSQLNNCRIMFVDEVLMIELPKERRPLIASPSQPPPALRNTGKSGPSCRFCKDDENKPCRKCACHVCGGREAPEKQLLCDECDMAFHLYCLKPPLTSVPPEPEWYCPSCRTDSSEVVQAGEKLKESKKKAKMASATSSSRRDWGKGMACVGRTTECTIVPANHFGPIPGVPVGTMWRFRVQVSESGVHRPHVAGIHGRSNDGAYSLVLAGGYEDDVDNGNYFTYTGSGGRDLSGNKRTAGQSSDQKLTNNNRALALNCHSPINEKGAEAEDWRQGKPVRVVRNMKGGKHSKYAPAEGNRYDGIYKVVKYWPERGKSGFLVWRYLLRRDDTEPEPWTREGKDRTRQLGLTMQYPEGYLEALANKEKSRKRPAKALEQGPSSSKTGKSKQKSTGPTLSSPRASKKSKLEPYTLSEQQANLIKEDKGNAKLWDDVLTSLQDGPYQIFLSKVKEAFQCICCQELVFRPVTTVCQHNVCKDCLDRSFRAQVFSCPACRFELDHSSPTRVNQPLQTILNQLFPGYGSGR
The description is as above.

A further assay deals with MYC-tagged PRMT5 (UniProt Q8CIG8). The experiment in a line: co-IP; HEK293T cells co-transfected with FLAG- and MYC-tagged plasmids, 48 h; immunoprecipitation with anti-MYC antibody; western blot with anti-FLAG and anti-MYC.
The target in assay [3] is MIWI (mouse (endogenous in testes)) (UniProt Q9JMB7). The experiment in a line: co-IP; lysate of adult mouse testes (control and Uhrf1 cKO) in IP buffer (20 mM HEPES, 150 mM NaCl, 2 mM magnesium acetate, 0.2% NP-40, 1 mM DTT, pH 7.3); primary antibody overnight at 4 °C, protein A beads; western blot.
Assay [4] addresses MILI (mouse (endogenous in testes)) (UniProt Q8CDG1). Described as above.

MIWI (from UniProt Q9JMB7 1-862): the binding result in assay [1] and in assay [2] was “binds” throughout.

B1: FLAG-tagged UHRF1 (protein, UniProt Q8VDF2 1-782)
chain: MWIQVRTMDGKETHTVNSLSRLTKVQELRKKIEEVFHVEPQLQRLFYRGKQMEDGHTLFDYDVRLNDTIQLLVRQSLALPLSTKERDSELSDSDSGYGVGHSESDKSSTHGEGAAEADDKTVWEDTDLGLYKVNEYVDVRDNIFGAWFEAQVVQVQKRALSEDEPCSSSAVKTSEDDIMYHVKYDDYPEHGVDIVKAKNVRARARTVIPWENLEVGQVVMANYNVDYPRKRGFWYDVEICRKRQTRTARELYGNIRLLNDSQLNNCRIMFVDEVLMIELPKERRPLIASPSQPPPALRNTGKSGPSCRFCKDDENKPCRKCACHVCGGREAPEKQLLCDECDMAFHLYCLKPPLTSVPPEPEWYCPSCRTDSSEVVQAGEKLKESKKKAKMASATSSSRRDWGKGMACVGRTTECTIVPANHFGPIPGVPVGTMWRFRVQVSESGVHRPHVAGIHGRSNDGAYSLVLAGGYEDDVDNGNYFTYTGSGGRDLSGNKRTAGQSSDQKLTNNNRALALNCHSPINEKGAEAEDWRQGKPVRVVRNMKGGKHSKYAPAEGNRYDGIYKVVKYWPERGKSGFLVWRYLLRRDDTEPEPWTREGKDRTRQLGLTMQYPEGYLEALANKEKSRKRPAKALEQGPSSSKTGKSKQKSTGPTLSSPRASKKSKLEPYTLSEQQANLIKEDKGNAKLWDDVLTSLQDGPYQIFLSKVKEAFQCICCQELVFRPVTTVCQHNVCKDCLDRSFRAQVFSCPACRFELDHSSPTRVNQPLQTILNQLFPGYGSGR
Consider B1, for which, in the assay with MYC-tagged PRMT5, the binding entry is “binds”.

B2: UHRF1 (ubiquitin-like, containing PHD and RING finger domains 1) (protein, UniProt Q8VDF2 1-782)
chain: MWIQVRTMDGKETHTVNSLSRLTKVQELRKKIEEVFHVEPQLQRLFYRGKQMEDGHTLFDYDVRLNDTIQLLVRQSLALPLSTKERDSELSDSDSGYGVGHSESDKSSTHGEGAAEADDKTVWEDTDLGLYKVNEYVDVRDNIFGAWFEAQVVQVQKRALSEDEPCSSSAVKTSEDDIMYHVKYDDYPEHGVDIVKAKNVRARARTVIPWENLEVGQVVMANYNVDYPRKRGFWYDVEICRKRQTRTARELYGNIRLLNDSQLNNCRIMFVDEVLMIELPKERRPLIASPSQPPPALRNTGKSGPSCRFCKDDENKPCRKCACHVCGGREAPEKQLLCDECDMAFHLYCLKPPLTSVPPEPEWYCPSCRTDSSEVVQAGEKLKESKKKAKMASATSSSRRDWGKGMACVGRTTECTIVPANHFGPIPGVPVGTMWRFRVQVSESGVHRPHVAGIHGRSNDGAYSLVLAGGYEDDVDNGNYFTYTGSGGRDLSGNKRTAGQSSDQKLTNNNRALALNCHSPINEKGAEAEDWRQGKPVRVVRNMKGGKHSKYAPAEGNRYDGIYKVVKYWPERGKSGFLVWRYLLRRDDTEPEPWTREGKDRTRQLGLTMQYPEGYLEALANKEKSRKRPAKALEQGPSSSKTGKSKQKSTGPTLSSPRASKKSKLEPYTLSEQQANLIKEDKGNAKLWDDVLTSLQDGPYQIFLSKVKEAFQCICCQELVFRPVTTVCQHNVCKDCLDRSFRAQVFSCPACRFELDHSSPTRVNQPLQTILNQLFPGYGSGR
For B2, the binding entry in assay [3], in assay [1] and in assay [4] was “binds” in each case.

B3: TDRKH (protein, UniProt Q80VL1 1-560)
chain: MSTERTSWTNLSTIQKIALGLGIPASATVAYILYRRYRESREERLTFVGEDDIEIEMRVPQEAVKLIIGRQGANIKQLRKQTGARIDVDTEDVGDERVLLISGFPVQVCKAKAAIHQILTENTPVFEQLSVPQRSVGRIIGRGGETIRSICKASGAKITCDKESEGTLLLSRLIKISGTQKEVAAAKHLILEKVSEDEELRKRIAHSAETRVPRKQPISVRREEVTEPGGAGEAALWKNTNSSMGPATPLEVPLRKGGGDMVVVGPKEGSWEKPNDDSFQNSGAQSSPETSMFEIPSPDFSFHADEYLEVYVSASEHPNHFWIQIIGSRSLQLDKLVSEMTQHYENSLPEDLTVHVGDIVAAPLSTNGSWYRARVLGTLENGNLDLYFVDFGDNGDCALKDLRALRSDFLSLPFQAIECSLARIAPTGEEWEEEALDEFDRLTHCADWKPLVAKISSYVQTGISTWPKIYLYDTSDEKKLDIGLELVRKGYAVELPEDMEENRTVPNMLKDMATETDDSLASILTETKKSPEEMPHTLSCLSLSEAASMSGDDNLEDDLF
With B3, the binding entry in assay [2] is “binds”.
